Data as given in PubChem BioAssay AID1224830 (NIAID, 2016).
This is a random part of about 18,000 deposited reagents. About 2,900 of all reagents (16%) were called active. 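Calls are made per well; low scores hint the gene aids the LPS response, high scores that it dampens it.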 A number with no mark means an inactive call. Repeated entries: four replicate wells of each siRNA pool.

- Test: 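Host factors that control LPS-induced TNF expression in human macrophages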 (primary screen)
- Cells: human THP-1 monocytic leukaemia cells, TNF dual-luciferase reporter clone, PMA-differentiated to macrophage-like cells
- Reagent: siRNA pool against human genes, 50 nM
- Timing: LPS for 4 h, given about 3 days after siRNA transfection
- Conditions: bacterial LPS (TLR4 ligand), 10 ng/ml
- Read-out: 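TNF firefly reporter luminescence divided by renilla, normalised to the plate median, then turned into a robust z-score for each replicate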
- Reading the numbers: TNF reporter robust z-score: higher = stronger TNF reporter response to LPS
- Active means: 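a well is active when its z-score exceeds 2.8 or falls below -1.5; control wells carry no call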

no.	gene	TNF reporter robust z-score
1	DNASE1L2 (GeneID 1775)	0.95
2	DNASE1L2 (GeneID 1775)	1.61
3	DNASE1L2 (GeneID 1775)	1.21
4	DNASE1L2 (GeneID 1775)	0.9
5	MRTO4 (GeneID 51154)	-1.29
6	MRTO4 (GeneID 51154)	-0.96
7	MRTO4 (GeneID 51154)	-0.18
8	MRTO4 (GeneID 51154)	-0.53
9	LIG4 (GeneID 3981)	-0.64
10	LIG4 (GeneID 3981)	-0.38
11	LIG4 (GeneID 3981)	-0.37
12	LIG4 (GeneID 3981)	0.39
13	RBP1 (GeneID 5947)	-0.9
14	RBP1 (GeneID 5947)	-0.54
15	RBP1 (GeneID 5947)	-1.28
16	KRTAP19-7 (GeneID 337974)	1.06
17	KRTAP19-7 (GeneID 337974)	1.16
18	KRTAP19-7 (GeneID 337974)	1.36
19	KRTAP19-7 (GeneID 337974)	0.49
20	BRIX1 (GeneID 55299)	0.58
21	BRIX1 (GeneID 55299)	-0.37
22	BRIX1 (GeneID 55299)	0.68
23	BRIX1 (GeneID 55299)	0.89
24	WDPCP (GeneID 51057)	-0.02
25	WDPCP (GeneID 51057)	2.77
26	WDPCP (GeneID 51057)	0.5
27	WDPCP (GeneID 51057)	-0.61
28	DENND1C (GeneID 79958)	-1.5
29	DENND1C (GeneID 79958)	-1.44
30	DENND1C (GeneID 79958)	-1.55 (active)
31	DENND1C (GeneID 79958)	-1.53 (active)
32	PPP6R2 (GeneID 9701)	-0.45
33	PPP6R2 (GeneID 9701)	-0.34
34	PPP6R2 (GeneID 9701)	0.8
35	PPP6R2 (GeneID 9701)	0.35
36	SDAD1 (GeneID 55153)	1.09
37	SDAD1 (GeneID 55153)	0.52
38	SDAD1 (GeneID 55153)	1.21
39	SDAD1 (GeneID 55153)	-0.02
40	CDKN1A (GeneID 1026)	0.48
41	CDKN1A (GeneID 1026)	0.36
42	CDKN1A (GeneID 1026)	-1.08
43	CDKN1A (GeneID 1026)	-1.15
44	GABPA (GeneID 2551)	-0.06
45	GABPA (GeneID 2551)	-0.86
46	GABPA (GeneID 2551)	0.18
47	GABPA (GeneID 2551)	1.09
48	UBA7 (GeneID 7318)	0.77
49	UBA7 (GeneID 7318)	0.58
50	UBA7 (GeneID 7318)	0.64
51	UBA7 (GeneID 7318)	1.23
52	STX6 (GeneID 10228)	0.1
53	STX6 (GeneID 10228)	1.88
54	STX6 (GeneID 10228)	0.2
55	STX6 (GeneID 10228)	-0.15
56	GAGE6 (GeneID 2578)	-1.49
57	GAGE6 (GeneID 2578)	-0.74
58	GAGE6 (GeneID 2578)	0.1
59	GAGE6 (GeneID 2578)	-1.31
60	FAM153B (GeneID 202134)	-0.49
61	FAM153B (GeneID 202134)	0.2
62	FAM153B (GeneID 202134)	1.53
63	FAM153B (GeneID 202134)	1
64	REEP4 (GeneID 80346)	-0.22
65	REEP4 (GeneID 80346)	-0.09
66	REEP4 (GeneID 80346)	-0.93
67	REEP4 (GeneID 80346)	0.44
68	PRR14 (GeneID 78994)	-2.21 (active)
69	PRR14 (GeneID 78994)	-2.06 (active)
70	PRR14 (GeneID 78994)	-2.01 (active)
71	PRR14 (GeneID 78994)	-1.93 (active)
72	ADGRF4 (GeneID 221393)	-0.73
73	ADGRF4 (GeneID 221393)	-0.4
74	ADGRF4 (GeneID 221393)	-0.96
75	ADGRF4 (GeneID 221393)	-0.04
76	GPR18 (GeneID 2841)	-0.53
77	GPR18 (GeneID 2841)	0.16
78	GPR18 (GeneID 2841)	-0.05
79	GPR18 (GeneID 2841)	1.01
80	UPK1B (GeneID 7348)	2.12
81	UPK1B (GeneID 7348)	0.5
82	UPK1B (GeneID 7348)	1.71
83	UPK1B (GeneID 7348)	1.91
84	ANKRD12 (GeneID 23253)	-0.94
85	ANKRD12 (GeneID 23253)	-0.34
86	ANKRD12 (GeneID 23253)	0.88
87	ANKRD12 (GeneID 23253)	-0.84
88	HECTD4 (GeneID 283450)	-0.17
89	HECTD4 (GeneID 283450)	0.4
90	HECTD4 (GeneID 283450)	1.12
91	HECTD4 (GeneID 283450)	1.41
92	RGS16 (GeneID 6004)	1.13
93	RGS16 (GeneID 6004)	1.08
94	RGS16 (GeneID 6004)	0.27
95	RGS16 (GeneID 6004)	0.17
96	PI3 (GeneID 5266)	-0.91
97	PI3 (GeneID 5266)	-0.57
98	PI3 (GeneID 5266)	-0.67
99	PI3 (GeneID 5266)	-0.19
100	ZFAND5 (GeneID 7763)	-1.28
101	ZFAND5 (GeneID 7763)	-0.89
102	ZFAND5 (GeneID 7763)	-0.73
103	ZFAND5 (GeneID 7763)	-0.82
104	ABCA3 (GeneID 21)	1.35
105	ABCA3 (GeneID 21)	0.49
106	ABCA3 (GeneID 21)	1.1
107	ABCA3 (GeneID 21)	0.7
108	SMYD1 (GeneID 150572)	0.33
109	SMYD1 (GeneID 150572)	-0.01
110	SMYD1 (GeneID 150572)	0.72
111	SMYD1 (GeneID 150572)	2.03
112	DUSP16 (GeneID 80824)	-0.27
113	DUSP16 (GeneID 80824)	0.75
114	DUSP16 (GeneID 80824)	1.31
115	DUSP16 (GeneID 80824)	1.46
116	HOPX (GeneID 84525)	-0.34
117	HOPX (GeneID 84525)	-0.93
118	HOPX (GeneID 84525)	-0.12
119	SLC39A12 (GeneID 221074)	-0.14
120	SLC39A12 (GeneID 221074)	-0.17
121	SLC39A12 (GeneID 221074)	0.15
122	SLC39A12 (GeneID 221074)	0.29
123	ZCWPW2 (GeneID 152098)	0.46
124	ZCWPW2 (GeneID 152098)	-0.55
125	ZCWPW2 (GeneID 152098)	-1.12
126	ZCWPW2 (GeneID 152098)	0.07
127	SNRPD2 (GeneID 6633)	-1.19
128	SNRPD2 (GeneID 6633)	-0.32
129	SNRPD2 (GeneID 6633)	-0.38
130	SNRPD2 (GeneID 6633)	-0.83
131	FSD2 (GeneID 123722)	-1.1
132	FSD2 (GeneID 123722)	-1.03
133	FSD2 (GeneID 123722)	-0.42
134	FSD2 (GeneID 123722)	-0.03
135	BOLL (GeneID 66037)	0.47
136	BOLL (GeneID 66037)	0.7
137	BOLL (GeneID 66037)	1.03
138	BOLL (GeneID 66037)	1.95
139	COL8A1 (GeneID 1295)	0.12
140	COL8A1 (GeneID 1295)	0.85
141	COL8A1 (GeneID 1295)	0.13
142	COL8A1 (GeneID 1295)	-0.57

Entries listed so far whose gene name begins with M or m (4):
gene	TNF reporter robust z-score
MRTO4 (GeneID 51154)	-1.29
MRTO4 (GeneID 51154)	-0.96
MRTO4 (GeneID 51154)	-0.18
MRTO4 (GeneID 51154)	-0.53
